Laboratory results as given in PMC9898070.

Target: GST-tagged HIF-1α truncation: N-terminal region containing HLH (human)
Assay: pull-down; GST-tagged HIF-1α truncations from E. coli on Glutathione Sepharose, incubated with 293T cell lysates containing HA-L3MBTL3 at 4 °C for 6 h; only the target purified

binding: binds
B1: HA-L3MBTL3 (protein, UniProt Q96JM7 1-780)
chain: MTESASSTSGQEFDVFSVMDWKDGVGTLPGSDLKFRVNEFGALEVITDENEMENVKKATATTTWMVPTAQEAPTSPPSSRPVFPPAYWTSPPGCPTVFSEKTGMPFRLKDPVKVEGLQFCENCCQYGNVDECLSGGNYCSQNCARHIKDKDQKEERDVEEDNEEEDPKCSRKKKPKLSLKADTKEDGEERDDEMENKQDVRILRGSQRARRKRRGDSAVLKQGLPPKGKKAWCWASYLEEEKAVAVPAKLFKEHQSFPYNKNGFKVGMKLEGVDPEHQSVYCVLTVAEVCGYRIKLHFDGYSDCYDFWVNADALDIHPVGWCEKTGHKLHPPKGYKEEEFNWQTYLKTCKAQAAPKSLFENQNITVIPSGFRVGMKLEAVDKKNPSFICVATVTDMVDNRFLVHFDNWDESYDYWCEASSPHIHPVGWCKEHRRTLITPPGYPNVKHFSWDKYLEETNSLPAPARAFKVKPPHGFQKKMKLEVVDKRNPMFIRVATVADTDDHRVKVHFDGWNNCYDYWIDADSPDIHPVGWCSKTGHPLQPPLSPLELMEASEHGGCSTPGCKGIGHFKRARHLGPHSAANCPYSEINLNKDRIFPDRLSGEMPPASPSFPRNKRTDANESSSSPEIRDQHADDVKEDFEERTESEMRTSHEARGAREEPTVQQAQRRSAVFLSFKSPIPCLPLRWEQQSKLLPTVAGIPASKVSKWSTDEVSEFIQSLPGCEEHGKVFKDEQIDGEAFLLMTQTDIVKIMSIKLGPALKIFNSILMFKAAEKNSHNEL

Results are given in words; binding and its absence hold for the method and conditions named. In cells and extracts the contact can be indirect. Binding calls can cover weak binding; strength is not graded here. Tags and fused reporters may be left off the sequences shown.
